Article PMC5105134
No constants are given. Whether binding was seen depends on the method and setting. Binding seen in cells or lysates may run through a third protein. Some results given as binding are weak or reduced against the parent protein; the word gives no strength.

The chains behind the UniProt entries cited, without tags or fusion partners.
UniProt P68404: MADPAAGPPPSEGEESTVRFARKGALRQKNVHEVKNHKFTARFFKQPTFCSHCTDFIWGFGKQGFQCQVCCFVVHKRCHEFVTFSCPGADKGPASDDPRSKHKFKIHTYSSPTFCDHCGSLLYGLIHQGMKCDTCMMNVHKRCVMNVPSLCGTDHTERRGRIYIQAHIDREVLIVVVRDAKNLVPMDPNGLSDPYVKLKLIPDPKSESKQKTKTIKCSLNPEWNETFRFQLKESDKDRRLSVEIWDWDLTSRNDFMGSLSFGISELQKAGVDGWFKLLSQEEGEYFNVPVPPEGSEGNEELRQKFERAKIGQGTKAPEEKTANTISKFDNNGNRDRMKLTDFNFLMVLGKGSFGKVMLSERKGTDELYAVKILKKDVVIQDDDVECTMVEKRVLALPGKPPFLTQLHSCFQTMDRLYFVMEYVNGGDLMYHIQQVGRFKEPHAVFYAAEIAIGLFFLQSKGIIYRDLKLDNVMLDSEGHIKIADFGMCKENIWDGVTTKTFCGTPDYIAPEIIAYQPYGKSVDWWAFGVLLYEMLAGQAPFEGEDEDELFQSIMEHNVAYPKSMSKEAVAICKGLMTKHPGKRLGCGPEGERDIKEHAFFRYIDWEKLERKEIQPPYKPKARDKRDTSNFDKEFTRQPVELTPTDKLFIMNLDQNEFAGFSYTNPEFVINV

T1: endogenous TRPC3 of mouse heart (mouse (endogenous in mouse heart)) (UniProt Q9QZC1)
T1 sequence: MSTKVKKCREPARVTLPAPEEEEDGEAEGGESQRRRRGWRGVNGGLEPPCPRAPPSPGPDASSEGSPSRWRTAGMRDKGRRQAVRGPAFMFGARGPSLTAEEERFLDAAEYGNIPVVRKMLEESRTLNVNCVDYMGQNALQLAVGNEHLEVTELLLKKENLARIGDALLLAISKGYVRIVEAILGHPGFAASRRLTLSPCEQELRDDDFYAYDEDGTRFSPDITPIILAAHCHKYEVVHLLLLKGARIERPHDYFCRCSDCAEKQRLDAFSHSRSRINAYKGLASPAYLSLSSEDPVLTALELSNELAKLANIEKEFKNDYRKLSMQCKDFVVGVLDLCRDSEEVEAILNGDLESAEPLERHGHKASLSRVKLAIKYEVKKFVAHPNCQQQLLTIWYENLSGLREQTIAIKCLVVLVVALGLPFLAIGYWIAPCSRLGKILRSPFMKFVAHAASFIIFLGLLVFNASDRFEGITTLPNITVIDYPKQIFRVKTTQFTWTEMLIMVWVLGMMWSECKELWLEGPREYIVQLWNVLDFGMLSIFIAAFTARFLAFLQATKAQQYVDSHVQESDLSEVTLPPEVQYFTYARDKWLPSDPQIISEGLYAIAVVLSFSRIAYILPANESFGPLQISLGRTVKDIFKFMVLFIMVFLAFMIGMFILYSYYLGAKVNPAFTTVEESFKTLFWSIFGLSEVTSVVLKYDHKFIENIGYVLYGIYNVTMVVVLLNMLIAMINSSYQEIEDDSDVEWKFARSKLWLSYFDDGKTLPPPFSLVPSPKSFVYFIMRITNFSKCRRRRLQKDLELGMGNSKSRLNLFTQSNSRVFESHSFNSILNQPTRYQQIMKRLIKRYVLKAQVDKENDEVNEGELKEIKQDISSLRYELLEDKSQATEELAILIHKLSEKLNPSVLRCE

B1: endogenous Nox2 of mouse heart (enzyme, UniProt Q61093 1-570)
chain: MGNWAVNEGLSIFVILVWLGLNVFLFINYYKVYDDGPKYNYTRKLLGSALALARAPAACLNFNCMLILLPVCRNLLSFLRGSSACCSTRIRRQLDRNLTFHKMVAWMIALHTAIHTIAHLFNVEWCVNARVGISDRYSIALSDIGDNENEEYLNFAREKIKNPEGGLYVAVTRLAGITGIVITLCLILIITSSTKTIRRSYFEVFWYTHHLFVIFFIGLAIHGAERIVRGQTAESLEEHNLDICADKIEEWGKIKECPVPKFAGNPPMTWKWIVGPMFLYLCERLVRFWRSQQKVVITKVVTHPFKTIELQMKKKGFKMEVGQYIFVKCPKVSKLEWHPFTLTSAPEEDFFSIHIRIVGDWTEGLFNACGCDKQEFQDAWKLPKIAVDGPFGTASEDVFSYEVVMLVGAGIGVTPFASILKSVWYKYCDNATSLKLKKIYFYWLCRDTHAFEWFADLLQLLETQMQERNNANFLSYNIYLTGWDESQANHFAVHHDEEKDVITGLKQKTLYGRPNWDNEFKTIASEHPNTTIGVFLCGPEALAETLSKQSISNSESGPRGVHFIFNKENF
B2: endogenous p22phox of mouse heart (protein, UniProt Q61462 1-192)
chain: MGQIEWAMWANEQALASGLILITGGIVATAGRFTQWYFGAYSIAAGVLICLLEYPRGKRKKGSTMERCGQKYLTSVVKLFGPLTRNYYVRAALHFLLSVPAGFLLATILGTVCLAIASVIYLLAAIRGEQWTPIEPKPKERPQVGGTIKQPPTNPPPRPPAEVRKKPSEGEEEAASAGGPQVNPMPVTDEVV

molecular target: T1, endogenous TRPC3 of mouse heart (mouse (endogenous in mouse heart)); assay: co-IP; endogenous proteins in mouse heart lysates, sham or 1 week after TAC operation; precipitating antibody not stated

binding	Molecule
binds	endogenous protein kinase C (PKC) beta of mouse heart (from UniProt P68404 1-671) (enzyme)
binds	B1
binds	B2
